Measured values from publication PMC9481933.
No constants are given. Whether binding was seen depends on the method and setting. In cells and extracts the contact can be indirect. A yes stands for co-enrichment or nearness to the bait. Other partners may have been found. Where a sequence is shown, tags or fusion partners need not be part of it.

Sequences of proteins named here, by UniProt entry; tags and fusion partners are left off.
UniProt Q61879: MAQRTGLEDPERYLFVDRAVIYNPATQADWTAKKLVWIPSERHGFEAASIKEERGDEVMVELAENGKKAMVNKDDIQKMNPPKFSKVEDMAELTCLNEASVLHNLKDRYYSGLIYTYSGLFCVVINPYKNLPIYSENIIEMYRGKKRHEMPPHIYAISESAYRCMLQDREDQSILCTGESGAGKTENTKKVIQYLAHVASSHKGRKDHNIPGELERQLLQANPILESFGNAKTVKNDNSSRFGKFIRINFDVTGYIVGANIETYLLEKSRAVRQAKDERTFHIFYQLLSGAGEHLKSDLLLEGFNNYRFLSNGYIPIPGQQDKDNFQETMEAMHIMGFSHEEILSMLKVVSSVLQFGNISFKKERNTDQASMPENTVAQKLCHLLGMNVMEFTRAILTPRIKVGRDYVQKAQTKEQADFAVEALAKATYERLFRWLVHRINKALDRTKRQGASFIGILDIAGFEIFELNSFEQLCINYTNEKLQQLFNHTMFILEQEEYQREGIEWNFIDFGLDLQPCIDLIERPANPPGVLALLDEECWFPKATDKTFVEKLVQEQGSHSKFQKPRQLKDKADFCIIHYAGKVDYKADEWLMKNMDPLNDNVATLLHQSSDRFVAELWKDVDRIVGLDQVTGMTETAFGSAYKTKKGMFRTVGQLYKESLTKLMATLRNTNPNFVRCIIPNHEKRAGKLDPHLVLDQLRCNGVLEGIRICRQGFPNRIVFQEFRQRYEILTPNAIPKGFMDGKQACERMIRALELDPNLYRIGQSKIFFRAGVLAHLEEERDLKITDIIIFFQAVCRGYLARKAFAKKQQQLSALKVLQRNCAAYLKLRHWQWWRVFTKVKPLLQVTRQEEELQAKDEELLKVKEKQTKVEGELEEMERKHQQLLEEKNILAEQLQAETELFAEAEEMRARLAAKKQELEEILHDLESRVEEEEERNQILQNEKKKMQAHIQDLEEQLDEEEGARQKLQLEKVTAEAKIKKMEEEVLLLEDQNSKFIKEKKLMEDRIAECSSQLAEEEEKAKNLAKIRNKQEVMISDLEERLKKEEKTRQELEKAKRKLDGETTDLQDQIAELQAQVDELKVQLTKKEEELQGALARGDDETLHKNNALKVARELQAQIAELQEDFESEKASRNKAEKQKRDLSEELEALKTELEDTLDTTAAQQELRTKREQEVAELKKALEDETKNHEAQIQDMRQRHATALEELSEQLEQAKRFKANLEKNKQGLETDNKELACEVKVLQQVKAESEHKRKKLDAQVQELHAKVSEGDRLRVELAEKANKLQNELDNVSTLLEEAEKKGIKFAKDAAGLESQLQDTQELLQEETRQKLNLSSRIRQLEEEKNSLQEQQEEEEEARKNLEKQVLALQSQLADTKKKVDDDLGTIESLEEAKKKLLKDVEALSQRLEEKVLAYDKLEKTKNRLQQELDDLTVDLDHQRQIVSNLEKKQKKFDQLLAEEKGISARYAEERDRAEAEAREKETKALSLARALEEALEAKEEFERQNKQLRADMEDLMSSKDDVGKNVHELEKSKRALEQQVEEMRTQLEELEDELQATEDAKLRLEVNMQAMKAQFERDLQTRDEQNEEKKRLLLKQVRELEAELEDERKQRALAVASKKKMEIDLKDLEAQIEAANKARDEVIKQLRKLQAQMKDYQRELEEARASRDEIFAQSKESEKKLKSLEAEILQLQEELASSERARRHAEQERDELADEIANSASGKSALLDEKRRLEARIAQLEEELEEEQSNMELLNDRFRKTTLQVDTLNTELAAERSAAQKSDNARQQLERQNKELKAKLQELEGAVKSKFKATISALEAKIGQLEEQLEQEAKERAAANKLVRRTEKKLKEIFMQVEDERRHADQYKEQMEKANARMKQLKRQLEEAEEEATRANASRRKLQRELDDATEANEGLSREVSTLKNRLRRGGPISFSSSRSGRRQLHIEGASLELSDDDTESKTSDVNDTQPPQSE
UniProt Q64727: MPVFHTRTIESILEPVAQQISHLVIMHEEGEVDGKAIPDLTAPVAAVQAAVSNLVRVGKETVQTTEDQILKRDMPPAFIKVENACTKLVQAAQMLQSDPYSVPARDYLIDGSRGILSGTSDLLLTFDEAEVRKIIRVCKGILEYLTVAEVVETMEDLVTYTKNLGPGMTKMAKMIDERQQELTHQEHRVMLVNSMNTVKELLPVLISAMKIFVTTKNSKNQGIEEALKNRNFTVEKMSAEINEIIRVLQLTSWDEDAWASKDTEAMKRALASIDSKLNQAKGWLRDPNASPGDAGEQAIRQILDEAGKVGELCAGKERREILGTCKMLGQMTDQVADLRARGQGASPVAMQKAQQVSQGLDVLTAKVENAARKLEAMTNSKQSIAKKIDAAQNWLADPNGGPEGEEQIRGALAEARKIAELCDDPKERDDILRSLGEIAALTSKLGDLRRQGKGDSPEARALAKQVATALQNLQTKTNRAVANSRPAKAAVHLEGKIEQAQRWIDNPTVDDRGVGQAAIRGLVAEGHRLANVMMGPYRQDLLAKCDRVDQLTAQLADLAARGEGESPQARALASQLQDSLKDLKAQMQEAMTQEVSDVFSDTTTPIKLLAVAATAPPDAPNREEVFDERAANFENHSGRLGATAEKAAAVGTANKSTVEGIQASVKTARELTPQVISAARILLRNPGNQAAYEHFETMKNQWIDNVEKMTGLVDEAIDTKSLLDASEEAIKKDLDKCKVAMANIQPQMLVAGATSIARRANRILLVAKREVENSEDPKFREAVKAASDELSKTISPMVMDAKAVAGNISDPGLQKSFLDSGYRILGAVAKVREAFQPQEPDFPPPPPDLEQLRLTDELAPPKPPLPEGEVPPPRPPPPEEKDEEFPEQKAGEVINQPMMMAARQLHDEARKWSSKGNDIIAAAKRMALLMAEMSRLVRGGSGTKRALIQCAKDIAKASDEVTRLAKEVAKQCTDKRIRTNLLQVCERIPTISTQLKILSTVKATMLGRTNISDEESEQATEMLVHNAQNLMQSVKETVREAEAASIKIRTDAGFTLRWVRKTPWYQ
UniProt P05198: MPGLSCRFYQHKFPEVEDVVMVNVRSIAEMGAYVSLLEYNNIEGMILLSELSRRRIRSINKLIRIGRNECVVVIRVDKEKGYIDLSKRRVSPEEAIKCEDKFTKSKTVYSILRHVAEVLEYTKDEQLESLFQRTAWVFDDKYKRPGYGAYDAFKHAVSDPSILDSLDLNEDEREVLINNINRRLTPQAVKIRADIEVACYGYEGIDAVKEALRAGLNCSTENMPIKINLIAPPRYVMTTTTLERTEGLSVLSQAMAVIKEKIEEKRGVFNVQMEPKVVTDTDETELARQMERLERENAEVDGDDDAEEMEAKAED
UniProt Q9Y262: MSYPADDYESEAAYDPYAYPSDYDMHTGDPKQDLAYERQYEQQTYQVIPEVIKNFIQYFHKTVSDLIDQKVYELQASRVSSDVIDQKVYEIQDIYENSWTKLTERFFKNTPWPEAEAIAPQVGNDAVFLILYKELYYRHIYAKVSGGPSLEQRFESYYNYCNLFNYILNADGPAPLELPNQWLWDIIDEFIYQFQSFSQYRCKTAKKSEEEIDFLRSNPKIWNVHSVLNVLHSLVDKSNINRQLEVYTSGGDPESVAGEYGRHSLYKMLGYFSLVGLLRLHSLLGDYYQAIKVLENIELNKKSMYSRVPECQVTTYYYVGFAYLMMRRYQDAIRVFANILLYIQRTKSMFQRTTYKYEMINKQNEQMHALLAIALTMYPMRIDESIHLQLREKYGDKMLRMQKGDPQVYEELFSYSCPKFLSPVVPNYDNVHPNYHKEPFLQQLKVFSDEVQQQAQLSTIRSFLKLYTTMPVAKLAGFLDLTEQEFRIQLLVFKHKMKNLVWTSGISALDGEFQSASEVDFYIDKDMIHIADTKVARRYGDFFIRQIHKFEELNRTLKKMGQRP
UniProt P46821: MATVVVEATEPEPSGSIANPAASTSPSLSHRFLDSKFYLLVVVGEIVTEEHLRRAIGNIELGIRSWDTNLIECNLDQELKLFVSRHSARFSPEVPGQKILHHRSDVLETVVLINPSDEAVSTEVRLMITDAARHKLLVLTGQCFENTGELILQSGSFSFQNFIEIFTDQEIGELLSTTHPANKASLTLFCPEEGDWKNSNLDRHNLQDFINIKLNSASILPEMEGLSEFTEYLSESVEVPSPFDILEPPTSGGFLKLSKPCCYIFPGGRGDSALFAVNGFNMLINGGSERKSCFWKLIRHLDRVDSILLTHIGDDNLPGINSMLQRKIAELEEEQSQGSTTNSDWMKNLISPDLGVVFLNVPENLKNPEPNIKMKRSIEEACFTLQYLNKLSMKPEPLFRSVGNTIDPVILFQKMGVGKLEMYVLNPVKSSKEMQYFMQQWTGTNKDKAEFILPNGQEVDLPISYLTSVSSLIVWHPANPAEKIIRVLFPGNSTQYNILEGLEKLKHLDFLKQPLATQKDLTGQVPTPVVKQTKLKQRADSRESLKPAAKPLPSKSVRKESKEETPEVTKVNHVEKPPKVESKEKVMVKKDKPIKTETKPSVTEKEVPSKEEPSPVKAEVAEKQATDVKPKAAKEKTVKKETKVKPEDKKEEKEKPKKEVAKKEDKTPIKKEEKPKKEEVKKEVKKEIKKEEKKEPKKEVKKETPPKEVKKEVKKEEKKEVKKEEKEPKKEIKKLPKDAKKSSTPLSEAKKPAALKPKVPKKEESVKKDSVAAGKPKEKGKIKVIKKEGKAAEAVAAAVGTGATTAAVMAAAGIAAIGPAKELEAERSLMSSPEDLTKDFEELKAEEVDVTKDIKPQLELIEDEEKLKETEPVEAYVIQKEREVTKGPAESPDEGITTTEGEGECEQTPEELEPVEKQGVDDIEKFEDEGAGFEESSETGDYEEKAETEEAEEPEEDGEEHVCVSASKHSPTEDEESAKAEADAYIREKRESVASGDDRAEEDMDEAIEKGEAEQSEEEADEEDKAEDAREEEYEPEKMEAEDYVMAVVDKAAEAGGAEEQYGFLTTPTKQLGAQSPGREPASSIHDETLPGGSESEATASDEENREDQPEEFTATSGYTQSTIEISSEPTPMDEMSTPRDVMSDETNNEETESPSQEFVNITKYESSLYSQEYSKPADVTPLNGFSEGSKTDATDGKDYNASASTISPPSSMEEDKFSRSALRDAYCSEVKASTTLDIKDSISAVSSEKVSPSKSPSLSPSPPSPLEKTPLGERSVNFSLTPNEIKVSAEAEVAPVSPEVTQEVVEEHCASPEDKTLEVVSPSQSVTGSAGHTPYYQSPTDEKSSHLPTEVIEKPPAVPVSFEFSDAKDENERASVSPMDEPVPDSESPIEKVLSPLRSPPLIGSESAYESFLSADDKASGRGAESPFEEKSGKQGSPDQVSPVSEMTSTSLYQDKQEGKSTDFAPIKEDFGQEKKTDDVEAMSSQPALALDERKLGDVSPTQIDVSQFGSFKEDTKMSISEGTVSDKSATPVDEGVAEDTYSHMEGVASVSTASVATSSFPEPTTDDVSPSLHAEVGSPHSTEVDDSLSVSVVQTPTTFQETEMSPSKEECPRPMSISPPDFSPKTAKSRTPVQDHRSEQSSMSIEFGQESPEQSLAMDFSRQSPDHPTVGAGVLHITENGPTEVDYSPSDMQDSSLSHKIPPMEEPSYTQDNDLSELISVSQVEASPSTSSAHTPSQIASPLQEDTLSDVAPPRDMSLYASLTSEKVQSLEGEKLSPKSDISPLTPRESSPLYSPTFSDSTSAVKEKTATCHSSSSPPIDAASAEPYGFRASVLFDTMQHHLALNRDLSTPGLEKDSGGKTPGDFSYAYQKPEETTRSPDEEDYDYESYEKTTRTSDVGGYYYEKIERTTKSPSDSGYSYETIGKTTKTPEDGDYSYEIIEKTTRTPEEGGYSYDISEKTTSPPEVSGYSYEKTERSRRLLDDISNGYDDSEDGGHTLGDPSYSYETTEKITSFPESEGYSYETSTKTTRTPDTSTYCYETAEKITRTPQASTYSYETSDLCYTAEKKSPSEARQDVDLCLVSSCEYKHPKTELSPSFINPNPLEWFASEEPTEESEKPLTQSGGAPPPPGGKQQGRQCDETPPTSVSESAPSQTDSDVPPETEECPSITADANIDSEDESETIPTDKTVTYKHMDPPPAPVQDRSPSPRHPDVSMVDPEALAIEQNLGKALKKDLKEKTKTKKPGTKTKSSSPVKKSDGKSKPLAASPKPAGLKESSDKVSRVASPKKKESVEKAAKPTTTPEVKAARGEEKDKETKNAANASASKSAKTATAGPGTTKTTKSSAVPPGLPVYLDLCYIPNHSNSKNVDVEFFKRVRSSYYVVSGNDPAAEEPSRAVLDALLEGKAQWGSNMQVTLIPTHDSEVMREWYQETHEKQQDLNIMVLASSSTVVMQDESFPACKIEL

T1: HA-FLAG-tagged Cyclin-F (wild type), in SH-SY5Y cells (UniProt P41002)
T1 sequence: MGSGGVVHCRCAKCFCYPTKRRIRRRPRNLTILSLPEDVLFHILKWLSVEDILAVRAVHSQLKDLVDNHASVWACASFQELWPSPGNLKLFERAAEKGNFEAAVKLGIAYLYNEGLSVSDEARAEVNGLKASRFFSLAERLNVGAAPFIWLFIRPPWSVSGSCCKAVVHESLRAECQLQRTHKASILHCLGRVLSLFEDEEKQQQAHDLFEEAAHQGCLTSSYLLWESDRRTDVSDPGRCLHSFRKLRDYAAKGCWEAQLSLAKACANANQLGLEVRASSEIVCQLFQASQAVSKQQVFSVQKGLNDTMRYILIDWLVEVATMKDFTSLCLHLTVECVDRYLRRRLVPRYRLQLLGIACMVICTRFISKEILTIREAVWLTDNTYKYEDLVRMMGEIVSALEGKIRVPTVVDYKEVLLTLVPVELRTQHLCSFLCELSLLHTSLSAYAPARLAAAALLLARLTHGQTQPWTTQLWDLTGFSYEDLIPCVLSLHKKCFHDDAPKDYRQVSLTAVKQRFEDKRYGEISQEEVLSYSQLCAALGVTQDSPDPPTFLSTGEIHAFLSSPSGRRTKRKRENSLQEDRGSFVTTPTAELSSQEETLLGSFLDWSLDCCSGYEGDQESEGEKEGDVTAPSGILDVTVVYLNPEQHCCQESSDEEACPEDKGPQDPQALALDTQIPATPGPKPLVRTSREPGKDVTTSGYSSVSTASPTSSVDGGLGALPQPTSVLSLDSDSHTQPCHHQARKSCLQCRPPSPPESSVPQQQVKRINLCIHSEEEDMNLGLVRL

T2: myc-APEX2-Cyclin-F, in N2a cells (UniProt P41002)
T2 sequence: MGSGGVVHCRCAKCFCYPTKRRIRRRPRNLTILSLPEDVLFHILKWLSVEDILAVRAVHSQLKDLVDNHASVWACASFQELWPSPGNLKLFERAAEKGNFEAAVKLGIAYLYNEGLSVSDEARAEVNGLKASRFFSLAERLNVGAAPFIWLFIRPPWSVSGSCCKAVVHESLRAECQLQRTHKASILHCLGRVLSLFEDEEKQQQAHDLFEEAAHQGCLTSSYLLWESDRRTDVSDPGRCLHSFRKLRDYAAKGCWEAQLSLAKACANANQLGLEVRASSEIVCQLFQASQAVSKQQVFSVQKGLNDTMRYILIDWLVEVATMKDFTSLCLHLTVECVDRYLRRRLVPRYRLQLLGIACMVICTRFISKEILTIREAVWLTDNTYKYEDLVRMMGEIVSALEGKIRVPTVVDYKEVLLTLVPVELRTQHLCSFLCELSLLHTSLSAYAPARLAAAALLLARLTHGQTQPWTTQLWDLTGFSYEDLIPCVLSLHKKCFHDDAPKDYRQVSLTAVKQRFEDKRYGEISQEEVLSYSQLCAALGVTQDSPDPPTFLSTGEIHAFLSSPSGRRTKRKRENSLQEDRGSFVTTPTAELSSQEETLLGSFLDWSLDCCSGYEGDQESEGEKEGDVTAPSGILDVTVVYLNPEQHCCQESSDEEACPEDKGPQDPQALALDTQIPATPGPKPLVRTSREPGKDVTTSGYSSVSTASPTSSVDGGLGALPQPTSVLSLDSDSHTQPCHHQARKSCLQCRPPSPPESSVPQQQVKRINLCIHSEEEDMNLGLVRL

T3: myc-APEX2-Cyclin-F, in SH-SY5Y cells (UniProt P41002)
T3 sequence: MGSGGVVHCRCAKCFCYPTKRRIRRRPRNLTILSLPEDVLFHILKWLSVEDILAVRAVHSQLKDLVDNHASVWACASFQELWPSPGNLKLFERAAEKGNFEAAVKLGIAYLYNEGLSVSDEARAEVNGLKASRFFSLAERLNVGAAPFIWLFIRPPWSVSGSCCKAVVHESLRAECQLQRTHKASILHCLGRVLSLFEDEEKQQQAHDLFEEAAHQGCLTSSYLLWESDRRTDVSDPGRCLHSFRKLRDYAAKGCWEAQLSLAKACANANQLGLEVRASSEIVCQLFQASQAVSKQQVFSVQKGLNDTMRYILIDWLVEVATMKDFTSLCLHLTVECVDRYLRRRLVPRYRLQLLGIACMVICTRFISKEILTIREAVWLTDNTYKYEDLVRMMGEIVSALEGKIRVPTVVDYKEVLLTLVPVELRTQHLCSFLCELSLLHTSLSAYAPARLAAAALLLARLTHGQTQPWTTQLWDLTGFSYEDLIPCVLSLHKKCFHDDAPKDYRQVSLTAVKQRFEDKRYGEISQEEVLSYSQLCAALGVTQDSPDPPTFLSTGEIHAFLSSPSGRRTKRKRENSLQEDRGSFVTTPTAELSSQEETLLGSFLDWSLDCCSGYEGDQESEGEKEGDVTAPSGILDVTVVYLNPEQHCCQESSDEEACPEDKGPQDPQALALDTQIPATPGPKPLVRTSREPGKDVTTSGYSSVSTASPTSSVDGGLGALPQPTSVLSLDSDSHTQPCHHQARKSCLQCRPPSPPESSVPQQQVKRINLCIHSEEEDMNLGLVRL


Target: T1, HA-FLAG-tagged Cyclin-F (wild type), in SH-SY5Y cells
Experiment: affinity purification with mass spectrometry; HA-FLAG-CCNF stably expressed in N2a or SH-SY5Y cells; anti-HA affinity resin, elution with HA peptide, trypsin, MS; control HA-FLAG-TBC1D7 IP; quadruplicates

Row | binding | Molecule
1 | binds | DNAJC7 (endogenous, human) (protein, UniProt Q99615 1-494) MAAAAECDVVMAATEPELLDDQEAKREAETFKEQGNAYYAKKDYNEAYNYYTKAIDMCPKNASYYGNRAATLMMLGRFREALGDAQQSVRLDDSFVRGHLREGKCHLSLGNAMAACRSFQRALELDHKNAQAQQEFKNANAVMEYEKIAETDFEKRDFRKVVFCMDRALEFAPACHRFKILKAECLAMLGRYPEAQSVASDILRMDSTNADALYVRGLCLYYEDCIEKAVQFFVQALRMAPDHEKACIACRNAKALKAKKEDGNKAFKEGNYKLAYELYTEALGIDPNNIKTNAKLYCNRGTVNSKLRKLDDAIEDCTNAVKLDDTYIKAYLRRAQCYMDTEQYEEAVRDYEKVYQTEKTKEHKQLLKNAQLELKKSKRKDYYKILGVDKNASEDEIKKAYRKRALMHHPDRHSGASAEVQKEEEKKFKEVGEAFTILSDPKKKTRYDSGQDLDEEGMNMGDFDPNNIFKAFFGGPGGFSFEASGPGNFFFQFG
2 | binds | CDC6 (endogenous) (protein, UniProt Q99741 1-560) MPQTRSQAQATISFPKRKLSRALNKAKNSSDAKLEPTNVQTVTCSPRVKALPLSPRKRLGDDNLCNTPHLPPCSPPKQGKKENGPPHSHTLKGRRLVFDNQLTIKSPSKRELAKVHQNKILSSVRKSQEITTNSEQRCPLKKESACVRLFKQEGTCYQQAKLVLNTAVPDRLPAREREMDVIRNFLREHICGKKAGSLYLSGAPGTGKTACLSRILQDLKKELKGFKTIMLNCMSLRTAQAVFPAIAQEICQEEVSRPAGKDMMRKLEKHMTAEKGPMIVLVLDEMDQLDSKGQDVLYTLFEWPWLSNSHLVLIGIANTLDLTDRILPRLQAREKCKPQLLNFPPYTRNQIVTILQDRLNQVSRDQVLDNAAVQFCARKVSAVSGDVRKALDVCRRAIEIVESDVKSQTILKPLSECKSPSEPLIPKRVGLIHISQVISEVDGNRMTLSQEGAQDSFPLQQKILVCSLMLLIRQLKIKEVTLGKLYEAYSKVCRKQQVAAVDQSECLSLSGLLEARGILGLKRNKETRLTKVFFKIEEKEIEHALKDKALIGNILATGLP
3 | binds | DNAJC18 (endogenous) (protein, UniProt Q9H819 1-358) MAATLGSGERWTEAYIDAVRRNKYPEDTPPESHDPCGCCNCMKAQKEKKSENEWTQTRQGEGNSTYSEEQLLGVQRIKKCRNYYEILGVSRDASDEELKKAYRKLALKFHPDKNCAPGATDAFKAIGNAFAVLSNPDKRLRYDEYGDEQVTFTAPRARPYNYYRDFEADITPEELFNVFFGGHFPTGNIHMFSNVTDDTYYYRRRHRHERTQTQKEEEEEKPQTTYSAFIQLLPVLVIVIISVITQLLATNPPYSLFYKSTLGYTISRETQNLQVPYFVDKNFDKAYRGASLHDLEKTIEKDYIDYIQTSCWKEKQQKSELTNLAGLYRDERLKQKAESLKLENCEKLSKLIGLRRGG

Target: T2, myc-APEX2-Cyclin-F, in N2a cells
Experiment: proximity labelling; myc-APEX2-CCNF stably expressed in N2a or SH-SY5Y cells; 500 uM biotin-phenol 30 min, 1 mM H2O2 pulse 1 min; streptavidin pull-down, MS; controls: omission of biotin-phenol or APEX2-TBC1D7; triplicates

Row | binding | Molecule
4 | binds | Myh10 (endogenous) (from UniProt Q61879 1-1976)
5 | binds | Vcl (endogenous) (from UniProt Q64727 1-1066)

Target: T3, myc-APEX2-Cyclin-F, in SH-SY5Y cells
Experiment: as above

Row | binding | Molecule
6 | binds | EIF2S1 (endogenous) (from UniProt P05198 1-315)
7 | binds | EIF3L (endogenous) (from UniProt Q9Y262 1-564)
8 | binds | MAP1B (endogenous) (from UniProt P46821 1-2468)
9 | binds | STIP1 (endogenous) (from UniProt P31948 1-543)
10 | binds | VCP (endogenous) (from UniProt P55072 1-806)
11 | binds | CDC6 (endogenous) (protein, UniProt Q99741 1-560) MPQTRSQAQATISFPKRKLSRALNKAKNSSDAKLEPTNVQTVTCSPRVKALPLSPRKRLGDDNLCNTPHLPPCSPPKQGKKENGPPHSHTLKGRRLVFDNQLTIKSPSKRELAKVHQNKILSSVRKSQEITTNSEQRCPLKKESACVRLFKQEGTCYQQAKLVLNTAVPDRLPAREREMDVIRNFLREHICGKKAGSLYLSGAPGTGKTACLSRILQDLKKELKGFKTIMLNCMSLRTAQAVFPAIAQEICQEEVSRPAGKDMMRKLEKHMTAEKGPMIVLVLDEMDQLDSKGQDVLYTLFEWPWLSNSHLVLIGIANTLDLTDRILPRLQAREKCKPQLLNFPPYTRNQIVTILQDRLNQVSRDQVLDNAAVQFCARKVSAVSGDVRKALDVCRRAIEIVESDVKSQTILKPLSECKSPSEPLIPKRVGLIHISQVISEVDGNRMTLSQEGAQDSFPLQQKILVCSLMLLIRQLKIKEVTLGKLYEAYSKVCRKQQVAAVDQSECLSLSGLLEARGILGLKRNKETRLTKVFFKIEEKEIEHALKDKALIGNILATGLP
